Results as given in PubChem BioAssay AID1259415 (National Center for Advancing Translational Sciences (NCATS), 2018).
Among all 410,000 compounds or so, about 18,000 (4.4%) were called active. The shares of active, inactive and inconclusive entries below differ from those in the screen. Rule as the data show it: active = activity change below about -60%; inconclusive = no clear call, values can overlap the other calls; inactive = above about -39%.

Experiment: qHTS Assay for inhibitors of the human cytomegalovirus (HCMV)
Details: HFF cells, HCMV-luciferase reporter, 72 h; at 57.5 µM; active compounds read low
How it was run: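 Human foreskin fibroblasts infected with luciferase-reporter HCMV at MOI 1 PFU/cell, compounds at two doses. Luciferase measured 72 h post infection; normalized to buffer-only basal and Salinomycin (10uM) controls.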
% is scaled to controls: 0 for no effect and ±100 for the full control effect.

| Compound | activity change, negative = inhibition |
| --- | --- |
| O=C(Cn1cnc2onc(-c3ccc(F)cc3)c2c1=O)Nc1ccc(F)c(Cl)c1 | inconclusive: -48.3% |
| O=C1Nc2ccccc2/C1=C/C(=O)c1cccs1 | active: -95% |
| Cc1nn2c(-c3ccncc3)nnc2c2ccccc12 | inconclusive: -43.9% |
| C=CCN(CC=C)c1nc2ccccc2nc1C(C#N)C(=O)OCCOC (configuration not stated) | inconclusive: -46.1% |
| C[C@H](NC(=O)C[C@@H]1C[C@@H]2c3cc(NC(=O)C4CCC4)ccc3O[C@@H]2[C@@H](CO)O1)c1ccccc1 | inactive: -18% |
| NS(=O)(=O)c1ccc(CCNC(=O)CN2CCC(Cc3ccccc3)CC2)cc1 | active: -76.1% |
| COc1ccc(C2CC(c3cccs3)=NN2C(=O)CSc2nnnn2C)cc1OC (configuration not stated) | inconclusive: -43.5% |
| Cc1c(C(=O)N(C)C2CCCCC2)sc2ncnc(N3CCN(c4ccccc4)CC3)c12 | inconclusive: -49% |
| O=C(Nc1nc2n(n1)C(c1ccc(Cl)cc1)C=C(c1ccccc1)N2)c1ccco1 (configuration not stated) | inconclusive: -46.5% |
| O=C(O)CC1(CC(=O)Nc2cc(F)ccc2Cl)CCCCC1 | inconclusive: -50.4% |
| CCc1ccc(OCC(O)CN2CCC(CN3C(=O)c4cccc5cccc(c45)C3=O)CC2)cc1 (configuration not stated) | inactive: 19.9% |
| COc1ccc(OC)c(NC(=O)c2cccc(NC(=O)c3ccccc3C(=O)O)c2)c1 | inconclusive: -45.3% |
| COc1c(/C=N/NC(=O)c2ccccc2O)c(CCN(C)C(C)=O)cc2c1OCO2 | inactive: 34.4% |
| O=C(NCc1cn(-c2ccccc2)nc1-c1ccccc1)c1cc([N+](=O)[O-])cc([N+](=O)[O-])c1 | inconclusive: -46.4% |
| N#Cc1nc(-c2ccccc2F)oc1NCCN1CCOCC1 | inactive: 19.1% |
| CCC(C)(C)NC(=O)C(c1ccc(C)cc1)N(CCN1CCOCC1)C(=O)CNC(=O)c1cccs1 (configuration not stated) | inconclusive: -57.4% |
| O=C(c1ccc2c(=O)n(-c3ccccc3)c(=S)[nH]c2c1)N1CCCCC1 | active: -92.4% |
| Cc1cc(C)c2oc(C(=O)Nc3nnc(C(C)C)s3)cc(=O)c2c1 | active: -66.4% |
| COc1ccccc1NC(=O)C(C)OC(=O)C1COc2ccccc2O1 (configuration not stated) | inactive: 0% |
| CN(C)/C=N/C(=S)Nc1ccccc1 | inactive: 40.4% |
| COc1ccccc1NC(=O)Cn1c(=O)n(CCc2ccccc2)c(=O)c2c3c(sc21)CN(C(C)=O)CC3 | active: -91.6% |
| O=S(=O)(c1cccc(NC(=S)N2CCN(c3ccccc3)CC2)c1)C(F)F | inconclusive: -45.7% |

| Compound | activity change, negative = inhibition |
| --- | --- |
| O=C1c2ccccc2C(Nc2ccc3c(c2)OCCO3)N1c1ccccn1 (configuration not stated) | inactive: -3.03% |
| CCn1c(=O)n(CC)c2cc(N3CCCC3)c(NC(=O)c3ccccc3OC)cc21 | inconclusive: -49.9% |
| CCN(CC)C(=O)c1sc2c(c1C)c(=O)n(-c1ccc(C)c(C)c1)c(=O)n2Cc1cc(=O)n2c(C)cccc2n1 | inactive: 18.6% |
| CCCn1c(CNC(=O)Cc2ccccc2)nc2ccccc21 | inconclusive: -40.4% |
| Cc1nc(N2CCN(C(=O)c3ccc(Cl)cc3)CC2)c(C#N)c2c1COC(C)(C)C2 | inactive: -35.9% |
| CC1CCN(Cc2ccc(NC(=O)C3CCN(c4nnc(-n5cccc5)s4)CC3)cc2)CC1 | inconclusive: -42.5% |
| Cc1nc(NC(=O)c2cccc(Cl)c2)sc1C(=O)N1CCCCC1 | inconclusive: -46.1% |
| COc1ccc(S(=O)(=O)Nc2cccc(-c3ccc(N4CCCCCC4)nn3)c2)cc1 | inconclusive: -58.7% |
| COc1ccc(CN(CCC(c2ccccc2)c2ccc(OC(C)C)cc2)C(=O)CCl)cc1OC (configuration not stated) | active: -99.8% |
| O=C(c1cccc(C(F)(F)F)c1)N1CCOC12CCN(c1ncc(C(F)(F)F)cc1Cl)CC2 | inconclusive: -41.9% |
| O=C(Cc1ccccc1)c1ccccc1C(=O)N1CCCCC1 | inactive: 13.8% |
| Cc1ccccc1C(=O)Nc1ccccc1N1CCN(C(=O)c2ccccc2)CC1 | active: -73.3% |
| CCOC(=O)c1nnn(-c2nc(OC)nc(N(C)C)n2)c1-c1ccccc1 | inconclusive: -47.9% |
| CCCOc1cccc(C(=O)NCCNC(=O)c2ccc(C)nc2)c1 | inactive: -17.6% |
| C/C(=N\NC(=S)Nc1cc(S(=O)(=O)N2CCOCC2)ccc1Cl)c1ccccc1F | active: -91.5% |
| CCOC(=O)N1CCN(C(=O)C2CC(=O)N(c3ccc(C)cc3)C2)CC1 (configuration not stated) | inactive: -9.91% |
| COc1ccc(O)c(C2Nc3ccccc3-n3c(-c4ccccc4)c4c(=O)n(C)c(=O)n(C)c4c32)c1 (configuration not stated) | inconclusive: -43.8% |
| C=CCc1cccc(/C=N/NC(=O)C(C)Nc2ccc(C)cc2)c1O (configuration not stated) | active: -89.4% |
| CC(=O)Nc1cccc(NC(=O)Cc2ccc3ccccc3c2)c1 | inactive: -3% |
| CCOC(=O)C1(Cc2cccc(OC)c2)CCN(Cc2cccc(O)c2)CC1 | inactive: -29.8% |
| O=C(c1ccc(COc2ccccc2Br)cc1)N1CCCCC1 | inactive: -8.51% |
| CCCn1c(=O)c2sccc2n2c(CCCC(=O)Nc3ccccc3OCC)nnc12 | inactive: 15.6% |

| Compound | activity change, negative = inhibition |
| --- | --- |
| O=C(O)c1cccc(S(=O)(=O)N(Cc2ccccc2)c2ccc(Cl)cc2)c1 | inconclusive: -51.2% |
| Cc1c(C(=O)Nc2ccc(F)cc2)nnn1-c1cccc(C(F)(F)F)c1 | active: -87.8% |
| COc1ccccc1NC(=S)N(Cc1cccs1)C1CCCC1 | inconclusive: -55.7% |
| N#Cc1ccccc1Cn1c(=O)n(CCCCC(=O)NCc2ccc3c(c2)OCO3)c(=O)c2ccccc21 | inactive: 8.35% |
| Cc1ccc(CNC(=O)c2nc(-c3ccc(Cl)cc3)n3c2CCCCC3)cc1 | inactive: -5.25% |
| CCN1CCN(CCCNC(=O)CNC(=O)c2nn(-c3ccc(OC)cc3OC)c(=O)c3ccccc23)CC1 | inactive: 9.5% |
| Cc1ccc(C)c(NC(=O)CCN2C(=O)c3ccccc3C2=O)c1 | inconclusive: -41.5% |
| CCCOc1ccc(C(=O)c2ccccc2C(=O)OC2CCOC2=O)cc1OCCC (configuration not stated) | inactive: 26.5% |
| Cc1ccc(C)c(N2CC(O)(c3cccs3)[N+]3=C2CCCC3)c1 (configuration not stated) | inconclusive: -44.1% |
| COc1ccc(Br)cc1C(=O)Nc1ccccc1N1CCCC1 | inconclusive: -40.3% |
| CCOC(=O)N1CCN(C(=O)c2ccc3c(Cl)c4c(nc3c2)CCCC4)CC1 | inconclusive: -51.2% |
| CCCCS(=O)(=O)N1CCN(C(=N)N[N+](=O)[O-])CC1 | active: -62.4% |
| CCS(=O)(=O)N1CCCC(C(=O)NCCCOC(C)C)C1 (configuration not stated) | inconclusive: -46.1% |
| COc1ccc(NC(=O)CSc2nnc(Cn3cnc4ccccc43)o2)cc1 | inactive: 11.6% |
| Cc1nn(-c2ccc(N3CCCC3)nn2)c(C)c1CCC(=O)NCc1ccccc1F | inconclusive: -50% |
| COCc1ccc(CN2CCCC(C(=O)Nc3ccc(-c4cccc(OC)c4)cc3)C2)o1 (configuration not stated) | inconclusive: 0% |
| CCCC(=O)NC(c1cccs1)c1cc([N+](=O)[O-])c2cccnc2c1O (configuration not stated) | active: -99.3% |
| COc1ccc(Cn2nnnc2CN2CCC(c3nc4ccccc4s3)CC2)cc1 | active: -69.8% |
| COCCCNCCOCCSc1ccc(Cl)cc1 | inconclusive: -46.3% |
| CN1CCN(C(=O)c2cc3c(C(F)(F)F)nn(C)c3s2)CC1 | inconclusive: -40.5% |
| CCOCC(=O)Nc1ncc(S(=O)(=O)c2ccc([N+](=O)[O-])cc2)s1 | inconclusive: -41.5% |
| COc1ccc(Cc2nnc(SCC(=O)c3cccc([N+](=O)[O-])c3)n2C)cc1 | inconclusive: -48.2% |

| Compound | activity change, negative = inhibition |
| --- | --- |
| Cn1c(=O)c2[nH]c(C(O)c3ccc(Cl)cc3)nc2n(C)c1=O (configuration not stated) | inactive: -27.4% |
| CC(CS(=O)(=O)c1ccccc1[N+](=O)[O-])N1CCOCC1 (configuration not stated) | active: -80.8% |
| Cc1c(NC(=O)C2CCCCC2)cc(C(=O)N2CCOCC2)cc1[N+](=O)[O-] | inconclusive: -51.4% |
| Cc1ccc2nc3c(c(Nc4ccc5c(c4)OCCO5)c2c1)CCC3 | active: -66.2% |
| CCCCCCC(C)n1[nH]c(=O)c2c(C)cc(=O)[nH]c21 (configuration not stated) | active: -70.2% |
| COc1ccc(Nc2cc(C)nc3ncnn23)c(OC)c1 | inactive: 75.7% |
| COc1ccc(CCNc2c(C)c(C)nc3ncnn23)cc1 | active: -89.1% |
| Cc1cccc(NC(=S)N/C(=N/S(=O)(=O)c2ccccc2)c2ccccc2)c1 | inconclusive: -41.4% |
| CC(C)c1ccc(-n2nc3ccc(N)cc3n2)cc1 | inactive: 13.6% |
| Cc1n[nH]c(C)c1Cc1c(F)cccc1Cl | inactive: -38.9% |
| CCN(C(=O)CCCCC(=O)N(CC)c1ccccc1)c1ccccc1 | inactive: 5.68% |
| CN(C)S(=O)(=O)c1cccc(-c2nnc(-c3ccccc3)o2)c1 | active: -105% |
| COc1ccc(C(=O)C2CCCN(C/C=C/c3ccccc3OC)C2)c(OC)c1 (configuration not stated) | active: -60.6% |
| COC(=O)c1ccc(Cn2nc(C)cc2C)cc1 | inactive: 0.613% |
| CCOC(=O)c1sc(=S)n(-c2ccccc2Cl)c1C | inactive: -12.2% |
| FC(F)(F)c1cnc2c(c1)Nc1ccccc1S2 | inconclusive: -48.6% |
| CCOC(=O)c1ccc(NC(=O)c2c(NCc3sccc3C)sc3c2CCCCC3)cc1 | inactive: -11.1% |
| COc1cc(Cc2cnc(N)nc2N)cc(OC)c1OC | inconclusive: -42% |
| CC1Cc2ccccc2N1C(=O)CSc1nc2cc3c(cc2cc1C#N)OCO3 (configuration not stated) | inactive: -16.6% |
| CCOC(=O)N1CCC(NC(=O)C2=CCN(S(=O)(=O)c3ccc(F)cc3)CC2)CC1 | inconclusive: -40.8% |
| C[C@H](CO)N1C[C@H](C)[C@@H](CN(C)S(=O)(=O)c2ccccc2)Oc2ccc(NC(=O)Cc3ccccc3)cc2C1=O | inconclusive: -41.7% |

5 neighbouring records from above, for reference:

| Compound | activity change, negative = inhibition |
| --- | --- |
| Cc1c(NC(=O)C2CCCCC2)cc(C(=O)N2CCOCC2)cc1[N+](=O)[O-] | inconclusive: -51.4% |
| Cc1ccc2nc3c(c(Nc4ccc5c(c4)OCCO5)c2c1)CCC3 | active: -66.2% |
| CCCCCCC(C)n1[nH]c(=O)c2c(C)cc(=O)[nH]c21 (configuration not stated) | active: -70.2% |
| COc1ccc(Nc2cc(C)nc3ncnn23)c(OC)c1 | inactive: 75.7% |
| COc1ccc(CCNc2c(C)c(C)nc3ncnn23)cc1 | active: -89.1% |
